Measured values published in PMC12279241.
Results are given in words; binding and its absence hold for the method and conditions named. Binding seen in cells or lysates may run through a third protein.

The chains behind the UniProt entries cited, without tags or fusion partners.
UniProt P27986: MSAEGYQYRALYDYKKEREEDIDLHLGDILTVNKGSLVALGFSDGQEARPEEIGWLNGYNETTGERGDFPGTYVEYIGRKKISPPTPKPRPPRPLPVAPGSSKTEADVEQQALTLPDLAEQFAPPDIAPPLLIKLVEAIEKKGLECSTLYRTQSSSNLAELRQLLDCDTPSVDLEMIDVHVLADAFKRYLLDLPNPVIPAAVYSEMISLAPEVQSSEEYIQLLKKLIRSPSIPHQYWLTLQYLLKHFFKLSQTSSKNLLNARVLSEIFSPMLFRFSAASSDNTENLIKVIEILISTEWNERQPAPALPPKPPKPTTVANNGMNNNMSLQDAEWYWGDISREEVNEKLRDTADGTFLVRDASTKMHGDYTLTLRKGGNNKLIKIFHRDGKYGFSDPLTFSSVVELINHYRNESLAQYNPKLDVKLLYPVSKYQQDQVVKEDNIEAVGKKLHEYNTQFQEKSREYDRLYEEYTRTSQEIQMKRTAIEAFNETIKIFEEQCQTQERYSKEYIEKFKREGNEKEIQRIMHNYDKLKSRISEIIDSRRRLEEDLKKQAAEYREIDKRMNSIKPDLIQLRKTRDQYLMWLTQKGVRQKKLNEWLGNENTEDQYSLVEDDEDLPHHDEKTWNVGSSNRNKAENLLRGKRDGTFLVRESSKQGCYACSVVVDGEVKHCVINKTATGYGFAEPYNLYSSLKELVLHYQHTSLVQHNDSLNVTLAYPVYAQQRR

T1: TMCO3 (IP experiments whose cells are not stated) (UniProt Q6UWJ1)
T1 sequence: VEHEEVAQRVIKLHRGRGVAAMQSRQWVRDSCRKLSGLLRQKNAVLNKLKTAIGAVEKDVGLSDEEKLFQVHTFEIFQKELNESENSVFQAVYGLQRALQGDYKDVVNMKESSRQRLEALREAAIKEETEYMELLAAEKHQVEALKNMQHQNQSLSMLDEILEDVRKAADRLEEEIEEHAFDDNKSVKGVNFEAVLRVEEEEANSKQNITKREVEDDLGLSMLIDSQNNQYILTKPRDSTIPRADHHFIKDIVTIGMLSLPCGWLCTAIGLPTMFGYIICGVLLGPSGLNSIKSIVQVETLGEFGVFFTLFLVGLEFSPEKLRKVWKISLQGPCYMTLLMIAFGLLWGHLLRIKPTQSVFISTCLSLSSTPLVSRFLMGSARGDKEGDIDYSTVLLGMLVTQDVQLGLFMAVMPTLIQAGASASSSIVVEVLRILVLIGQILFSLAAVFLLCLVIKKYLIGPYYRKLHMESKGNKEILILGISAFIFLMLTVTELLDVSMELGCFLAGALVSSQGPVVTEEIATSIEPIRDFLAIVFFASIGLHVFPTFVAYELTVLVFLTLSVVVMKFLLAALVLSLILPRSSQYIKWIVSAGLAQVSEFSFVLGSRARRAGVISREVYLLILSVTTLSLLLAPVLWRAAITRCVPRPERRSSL


What follows are molecules tested against T1, TMCO3 (IP experiments whose cells are not stated) (assay: co-IP; CO-IP of TMCO3 with classic PI3K subunits and other molecules that affect AKT activation; cells not given).

| binding | Molecule |
| --- | --- |
| no binding | p85α (from UniProt P27986 1-724) |
| no binding | PDK1 (3‐Phosphoinositide‐Dependent Protein Kinase‐1) (protein, UniProt O15530 1-556) MARTTSQLYDAVPIQSSVVLCSCPSPSMVRTQTESSTPPGIPGGSRQGPAMDGTAAEPRPGAGSLQHAQPPPQPRKKRPEDFKFGKILGEGSFSTVVLARELATSREYAIKILEKRHIIKENKVPYVTRERDVMSRLDHPFFVKLYFTFQDDEKLYFGLSYAKNGELLKYIRKIGSFDETCTRFYTAEIVSALEYLHGKGIIHRDLKPENILLNEDMHIQITDFGTAKVLSPESKQARANSFVGTAQYVSPELLTEKSACKSSDLWALGCIIYQLVAGLPPFRAGNEYLIFQKIIKLEYDFPEKFFPKARDLVEKLLVLDATKRLGCEEMEGYGPLKAHPFFESVTWENLHQQTPPKLTAYLPAMSEDDEDCYGNYDNLLSQFGCMQVSSSSSSHSLSASDTGLPQRSGSNIEQYIHDLDSNSFELDLQFSEDEKRLLLEKQAGGNPWHQFVENNLILKMGPVDKRKGLFARRRQLLLTEGPHLYYVDPVNKVLKGEIPWSQELRPEAKNFKTFFVHTPNRTYYLMDPSGNAHKWCRKIQEVWRQRYQSHPDAAVQ |
| no binding | PHLPP2 (protein, UniProt Q6ZVD8 1-1323) MKRNGSRNCLNRRSRFGSRERDWLREDVKRGCVYLYGADTTTATTTTTTSSSSSSSSSSSDLHLVLCTVETPASEICAGEGRESLYLQLHGDLVRRLEPTERPLQIVYDYLSRLGFDDPVRIQEEATNPDLGCMIRFYGEKPCHMDRLDRILLSGIYNVRKGKTQLHKWAERLVVLCGTCLIVSSVKDCQTGKMHILPLVGGKIEEVKRRQYSLAFSSAGAQAQTYHVSFETLAEYQRWQRQASKVVSQRISTVDLSCYSLEEVPEHLFYSQDITYLNLRHNFMQLERPGGLDTLYKFSQLKGLNLSHNKLGLFPILLCEISTLTELNLSCNGFHDLPSQIGNLLNLQTLCLDGNFLTTLPEELGNLQQLSSLGISFNNFSQIPEVYEKLTMLDRVVMAGNCLEVLNLGVLNRMNHIKHVDLRMNHLKTMVIENLEGNKHITHVDLRDNRLTDLDLSSLCSLEQLHCGRNQLRELTLSGFSLRTLYASSNRLTAVNVYPVPSLLTFLDLSRNLLECVPDWACEAKKIEVLDVSYNLLTEVPVRILSSLSLRKLMLGHNHVQNLPTLVEHIPLEVLDLQHNALTRLPDTLFSKALNLRYLNASANSLESLPSACTGEESLSMLQLLYLTNNLLTDQCIPVLVGHLHLRILHLANNQLQTFPASKLNKLEQLEELNLSGNKLKTIPTTIANCKRLHTLVAHSNNISIFPEILQLPQIQFVDLSCNDLTEILIPEALPATLQDLDLTGNTNLVLEHKTLDIFSHITTLKIDQKPLPTTDSTVTSTFWSHGLAEMAGQRNKLCVSALAMDSFAEGVGAVYGMFDGDRNEELPRLLQCTMADVLLEEVQQSTNDTVFMANTFLVSHRKLGMAGQKLGSSALLCYIRPDTADPASSFSLTVANVGTCQAVLCRGGKPVPLSKVFSLEQDPEEAQRVKDQKAIITEDNKVNGVTCCTRMLGCTYLYPWILPKPHISSTPLTIQDELLILGNKALWEHLSYTEAVNAVRHVQDPLAAAKKLCTLAQSYGCQDNVGAMVVYLNIGEEGCTCEMNGLTLPGPVGFASTTTIKDAPKPATPSSSSGIASEFSSEMSTSEVSSEVGSTASDEHNAGGLDTALLPRPERRCSLHPTPTSGLFQRQPSSATFSSNQSDNGLDSDDDQPVEGVITNGSKVEVEVDIHCCRGRDLENSPPLIESSPTLCSEEHARGSCFGIRRQNSVNSGMLLPMSKDRMELQKSPSTSCLYGKKLSNGSIVPLEDSLNLIEVATEVPKRKTGYFAAPTQMEPEDQFVVPHDLEEEVKEQMKQHQDSRLEPEPHEEDRTEPPEEFDTAL |
